Measurements taken from PMC9283456.

The chains behind the UniProt entries cited, without tags or fusion partners. Where a name states a change or a piece, a line headed by the entry shows the natural chain unless it says otherwise. Residues count along the entry.
UniProt P17301, residues 30-1181: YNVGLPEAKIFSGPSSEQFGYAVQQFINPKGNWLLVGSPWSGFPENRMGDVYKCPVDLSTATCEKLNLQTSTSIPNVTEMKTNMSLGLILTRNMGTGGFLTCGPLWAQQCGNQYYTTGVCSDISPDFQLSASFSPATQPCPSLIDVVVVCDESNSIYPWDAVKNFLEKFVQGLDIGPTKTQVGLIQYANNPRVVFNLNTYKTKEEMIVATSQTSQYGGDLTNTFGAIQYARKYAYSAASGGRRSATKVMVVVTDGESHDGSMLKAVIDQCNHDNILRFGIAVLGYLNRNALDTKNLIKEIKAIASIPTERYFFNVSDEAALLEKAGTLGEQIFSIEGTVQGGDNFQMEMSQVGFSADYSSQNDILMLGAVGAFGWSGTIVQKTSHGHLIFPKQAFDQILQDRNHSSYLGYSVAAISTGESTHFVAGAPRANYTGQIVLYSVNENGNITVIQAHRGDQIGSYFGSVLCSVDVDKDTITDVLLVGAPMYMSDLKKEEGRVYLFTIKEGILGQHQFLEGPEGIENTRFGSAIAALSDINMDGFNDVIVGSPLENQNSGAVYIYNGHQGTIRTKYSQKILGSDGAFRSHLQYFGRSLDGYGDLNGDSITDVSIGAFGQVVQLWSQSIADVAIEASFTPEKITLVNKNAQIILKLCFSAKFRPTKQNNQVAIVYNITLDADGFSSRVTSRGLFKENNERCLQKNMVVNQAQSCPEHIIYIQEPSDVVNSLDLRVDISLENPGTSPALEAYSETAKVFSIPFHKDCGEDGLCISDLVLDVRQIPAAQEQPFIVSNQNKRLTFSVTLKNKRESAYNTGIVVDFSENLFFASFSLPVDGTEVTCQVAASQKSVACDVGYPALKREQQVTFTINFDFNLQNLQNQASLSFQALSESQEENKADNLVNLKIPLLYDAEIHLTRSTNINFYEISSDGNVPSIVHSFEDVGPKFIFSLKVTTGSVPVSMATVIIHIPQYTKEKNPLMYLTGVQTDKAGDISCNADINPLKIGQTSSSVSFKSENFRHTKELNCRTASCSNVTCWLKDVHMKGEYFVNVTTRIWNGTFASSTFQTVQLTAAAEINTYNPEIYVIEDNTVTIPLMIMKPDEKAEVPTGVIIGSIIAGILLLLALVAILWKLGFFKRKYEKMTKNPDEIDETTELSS
UniProt P05556: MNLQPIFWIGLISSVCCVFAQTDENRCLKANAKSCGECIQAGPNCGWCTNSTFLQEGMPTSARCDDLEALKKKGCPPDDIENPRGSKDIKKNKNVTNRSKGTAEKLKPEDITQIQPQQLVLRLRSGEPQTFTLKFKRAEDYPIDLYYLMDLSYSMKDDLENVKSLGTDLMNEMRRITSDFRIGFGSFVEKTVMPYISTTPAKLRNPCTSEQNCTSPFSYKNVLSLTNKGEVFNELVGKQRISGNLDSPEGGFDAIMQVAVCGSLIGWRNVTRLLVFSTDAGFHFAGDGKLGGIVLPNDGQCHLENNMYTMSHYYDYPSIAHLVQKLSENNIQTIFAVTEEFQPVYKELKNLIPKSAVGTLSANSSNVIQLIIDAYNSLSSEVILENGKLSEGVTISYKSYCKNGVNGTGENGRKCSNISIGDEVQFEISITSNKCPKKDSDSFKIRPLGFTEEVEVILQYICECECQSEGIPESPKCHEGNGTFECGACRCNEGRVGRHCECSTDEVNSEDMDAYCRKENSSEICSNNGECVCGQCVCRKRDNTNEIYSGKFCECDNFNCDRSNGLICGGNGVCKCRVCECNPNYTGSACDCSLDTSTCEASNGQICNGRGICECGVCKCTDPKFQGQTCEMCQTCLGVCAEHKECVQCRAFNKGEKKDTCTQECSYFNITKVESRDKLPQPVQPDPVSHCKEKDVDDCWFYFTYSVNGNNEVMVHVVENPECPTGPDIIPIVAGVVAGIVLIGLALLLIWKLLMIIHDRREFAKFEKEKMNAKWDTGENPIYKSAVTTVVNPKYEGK

Biological target: T1, V5-tagged TM4SF1 (Transmembrane-4 L-six family member-1) (human) (UniProt P30408)
T1 sequence: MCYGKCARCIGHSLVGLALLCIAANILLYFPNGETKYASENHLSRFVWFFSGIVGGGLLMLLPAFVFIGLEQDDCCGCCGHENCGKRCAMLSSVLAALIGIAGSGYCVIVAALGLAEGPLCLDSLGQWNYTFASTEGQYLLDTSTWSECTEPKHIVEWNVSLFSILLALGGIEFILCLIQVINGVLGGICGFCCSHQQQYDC
Experiment: affinity purification with mass spectrometry; V5-tagged TM4SF1 stably overexpressed in Eca109 cells on laminin-coated dishes; lysis in 0.1% Triton TBS (20 mM Tris-HCl pH 7.4, 150 mM NaCl); anti-V5-tag mAb-magnetic beads, 4 °C, 2 h; eluate resolved by SDS-PAGE and analysed by mass spectrometry

binding | Substance
binds | integrin α2 (from UniProt P17301 30-1181) (receptor)
binds | integrin α6 (receptor)
binds | integrin β1 (from UniProt P05556 21-798) (receptor)

No constants are given. Whether binding was seen depends on the method and setting. In cells and extracts the contact can be indirect. Here binding means that the protein was enriched with, or labelled near, the bait; the list need not be complete. Tags and fused reporters may be left off the sequences shown.
